Test results: paper doi:10.1101/2024.05.10.593562 (bioRxiv, 2024)
Results are given in words; binding and its absence hold for the method and conditions named. Some binding calls cover weakened binding; strength is not graded here. Where a sequence is shown, tags or fusion partners need not be part of it.

Sequences of proteins named here, by UniProt entry; tags and fusion partners are left off. Residues count along the entry.
UniProt P03129, residues 1-97: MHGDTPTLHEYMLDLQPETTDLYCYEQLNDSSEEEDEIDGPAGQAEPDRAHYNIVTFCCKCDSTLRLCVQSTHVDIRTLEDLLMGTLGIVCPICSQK
UniProt Q13547: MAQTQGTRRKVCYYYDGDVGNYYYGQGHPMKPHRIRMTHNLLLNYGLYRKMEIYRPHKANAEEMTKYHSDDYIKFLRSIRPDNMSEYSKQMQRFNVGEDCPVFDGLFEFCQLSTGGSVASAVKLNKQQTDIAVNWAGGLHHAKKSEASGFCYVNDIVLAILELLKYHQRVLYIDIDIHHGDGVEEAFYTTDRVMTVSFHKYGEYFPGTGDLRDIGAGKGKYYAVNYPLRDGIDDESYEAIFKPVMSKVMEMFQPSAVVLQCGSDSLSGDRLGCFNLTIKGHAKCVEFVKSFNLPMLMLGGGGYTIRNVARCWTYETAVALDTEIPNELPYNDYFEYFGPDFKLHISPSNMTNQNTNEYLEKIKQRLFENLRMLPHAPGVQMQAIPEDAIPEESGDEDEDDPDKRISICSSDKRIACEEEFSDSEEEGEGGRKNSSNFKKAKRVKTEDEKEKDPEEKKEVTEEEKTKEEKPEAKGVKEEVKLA

Target: T1, GST-Rb 379-928 (UniProt P06400)
T1 sequence: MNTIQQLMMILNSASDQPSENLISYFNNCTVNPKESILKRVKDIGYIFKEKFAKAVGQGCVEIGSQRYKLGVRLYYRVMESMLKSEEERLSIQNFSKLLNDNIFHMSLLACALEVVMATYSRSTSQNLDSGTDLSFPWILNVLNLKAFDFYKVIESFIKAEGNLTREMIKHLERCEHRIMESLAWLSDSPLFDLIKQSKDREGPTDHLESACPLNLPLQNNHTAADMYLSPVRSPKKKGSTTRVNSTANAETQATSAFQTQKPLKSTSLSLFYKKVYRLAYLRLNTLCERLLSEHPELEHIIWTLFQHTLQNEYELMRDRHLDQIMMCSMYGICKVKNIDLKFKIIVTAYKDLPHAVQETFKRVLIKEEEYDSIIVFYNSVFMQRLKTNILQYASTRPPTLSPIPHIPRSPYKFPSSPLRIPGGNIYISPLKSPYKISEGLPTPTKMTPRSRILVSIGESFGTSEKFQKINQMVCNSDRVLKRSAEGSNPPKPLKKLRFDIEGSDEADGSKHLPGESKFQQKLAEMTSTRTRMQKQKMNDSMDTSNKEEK
Assay: AlphaScreen or HTRF

Row | Substance | binding
1 | HIS-E7 1-97 (from UniProt P03129 1-97) | binds
2 | HDAC1-FLAG (from UniProt Q13547 1-482) (enzyme) | binds
